Data taken from the RNAGym collection of RNA variant scans (doi:10.1126/science.aae0568).
Variants at the background level are over-represented here.

B1: tRNA (parent)
chain: GUUCCGUUGGCGUAAUGGUAACGCGUCUCCCUCCUAAGGAGAAGACUGCGGGUUCGAGUCCCGUACGGAACG

Variants of: B1
Test: yeast fitness relative to wild type (ratio to wild type); higher = fitter; tRNA-Arg(CCU), competitive growth, 37 C, YPD
Outline: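 Start and end populations of a pooled competition were compared by 100-nucleotide paired-end sequencing of gene amplicons. The Saccharomyces cerevisiae strains carried tRNA-Arg(CCU) gene variants at the native genomic locus, synthesised with a 3% per-site mutation rate at 69 sites, and competed in YPD at 37°C for 24 hours in six parallel replicates. Darwinian fitness relative to wild type was based on the change in genotype frequencies. Genotypes required ≥ 100 starting reads, and estimates < 0.5 were set to 0.5.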

Row | Variant | yeast fitness
1 | U3A C4U U32C U64C | 0.877
2 | C29G C31A C55U A70U | ≤ 0.5
3 | A15C A20G C60G G67A | ≤ 0.5
4 | G9C U13C C31G A65U | ≤ 0.5
5 | A21G C55U A69G | ≤ 0.5
6 | U2A C4A U13C C31A C49G A57G | ≤ 0.5
7 | G6C U7C C24U C29G C49A G68A | ≤ 0.5
8 | U7A C29U G58A | ≤ 0.5
9 | G18C C62G C66A | ≤ 0.5
10 | C4U A45U G68C | 0.7
11 | C11A A42G C61U | ≤ 0.5
12 | G23A U32G G58A | ≤ 0.5
13 | C11A C29G G44A G56C C62A G67C | ≤ 0.5
14 | C4A C27G A45U C55A | ≤ 0.5
15 | C4U C33U G44A C66U | ≤ 0.5
16 | A15U A20G C33U | ≤ 0.5
17 | A42U C46A C49A C62U | ≤ 0.5
18 | C5G U13C C31U A42G C46G G63C | ≤ 0.5
19 | C22U A42U G68A | ≤ 0.5
20 | U3G C24U C27G C30A | ≤ 0.5
21 | C30G C46G C60U A69G | ≤ 0.5
22 | C29G G48A U59C A69U | ≤ 0.5
23 | U8G C22U C24G A43U | ≤ 0.5
24 | C4A C5A G50C | ≤ 0.5

Row | Variant | yeast fitness
25 | G10A A20U A42G C60U U64A C66A G68A A69G | ≤ 0.5
26 | C5A A14U A21G G52A | 0.533
27 | U8C C11A C61U | ≤ 0.5
28 | G12A U19A C31G C34U A57G | ≤ 0.5
29 | C5U G48A C61G A69C | ≤ 0.5
30 | C55G A65G C66G A70U | ≤ 0.5
31 | U13G C27U C62G | ≤ 0.5
32 | A21G U53C A57C | ≤ 0.5
33 | C4G G17A C34A A43G U64C | ≤ 0.5
34 | C33U G56A C61G C66U | ≤ 0.5
35 | G10C U26C C30U C31G A43G | ≤ 0.5
36 | G10A G38A A57G | ≤ 0.5
37 | A20U A70G | 0.918
38 | G6C G23C C24A C61U | ≤ 0.5
39 | G12A C33A A36C A65C | ≤ 0.5
40 | U2C A40C C66A | ≤ 0.5
41 | C5U A40U G67C | ≤ 0.5
42 | G12C U47A A70G | 0.554
43 | G6A C22U A43U G48C | ≤ 0.5
44 | U19G C22G C34U C49U | ≤ 0.5
45 | U8G A15C U28A G52C | ≤ 0.5
46 | U7C U8A A20G C24G U64C | ≤ 0.5
47 | A21G G25A C60G | ≤ 0.5
48 | C29U A42U C49U G50U | ≤ 0.5

Row | Variant | yeast fitness
49 | A36G C49G A70G | 0.53
50 | G12A U19C U28C A37U G52A | ≤ 0.5
51 | U19C A20U C46A A69U | ≤ 0.5
52 | A14G G39A G44C C61A G63C | ≤ 0.5
53 | U3A C34U A45G U53A | ≤ 0.5
54 | U3A C4U U7A C24U C31A A40C G52A C61A | ≤ 0.5
55 | C5G U16A G48A U54C U64G | ≤ 0.5
56 | U32C C33G U47A | ≤ 0.5
57 | C4G G23C C62A G68C | ≤ 0.5
58 | G25C G48A G68U | ≤ 0.5
59 | U54A C55G | ≤ 0.5
60 | U47C G56C U64C G68C | ≤ 0.5
61 | C4G C29U G52C C62U A69U | ≤ 0.5
62 | A21G C33G A40G C55U | ≤ 0.5
63 | G6A G17C U19C C29A G44C G48A | ≤ 0.5
64 | C22U C49G U53A | 0.558
65 | G9A C11U C29A A65C | ≤ 0.5
66 | A40C G52C C66U G67A | ≤ 0.5
67 | A15G C55G G56U G58A | ≤ 0.5
68 | G25C C30U C61G | 0.526
69 | C27G C31G C33U G58C C60U C66G | ≤ 0.5
70 | C5U U16A A20U C24G C33G C61A G67C | ≤ 0.5
71 | G6A U7G G25C A45U G56A | ≤ 0.5
72 | A14C C31A G38A | ≤ 0.5

Row | Variant | yeast fitness
73 | C34A G44C C61G G68A | ≤ 0.5
74 | U54A C62U A70U | ≤ 0.5
75 | C4G C49U C66U | 0.681
76 | C4U C11U A15G C34U U54C C55U | 0.501
77 | C5U U19C G63C C66U | ≤ 0.5
78 | G10A A21C C24A C66A | ≤ 0.5
79 | G12C A21G C27U C33A A45C U54A | ≤ 0.5
80 | G44C C55A C66A | ≤ 0.5
81 | C22U A40G A43U C46G C49G G58A C62U | ≤ 0.5
82 | G9A U16A A42C U53C C62A | ≤ 0.5
83 | C11G A36C C61U | ≤ 0.5
84 | C11G C27U U47A G52C A65G | ≤ 0.5
85 | G6C C22A A57U | ≤ 0.5
86 | G38U G50A G67C | ≤ 0.5
87 | U2G C4U A37G C61A C62U A65U A69C | ≤ 0.5
88 | G6A C24A G38A G39C | ≤ 0.5
89 | U2G U26C C46G | ≤ 0.5
90 | U3A C4U U7A C24U A69U | ≤ 0.5
91 | G38C A45U U54A C61U A65G | ≤ 0.5
92 | G6U U35G A69U | 1.03
93 | U8G A21U G68A | ≤ 0.5
94 | G6A A21G C46A C55U G56A | ≤ 0.5
95 | C49G G63C G68C | ≤ 0.5
96 | U26C C46U C62U | 0.718

Row | Variant | yeast fitness
97 | U2G U16G C27A A36C G51A A57U | ≤ 0.5
98 | C11U A37C A40C U53C | ≤ 0.5
99 | C11U G52A C60A | 0.593
100 | C27A U35A G48A U59C | 0.567
101 | U47G G67A A69U | ≤ 0.5
102 | U26A C33U U53C | 0.54
103 | C11G A20U C24G C60G G68C | ≤ 0.5
104 | C11G C30G C61A C62G | ≤ 0.5
105 | G6A A20C U59A A69U | ≤ 0.5
106 | C5U C22U A37C | ≤ 0.5
107 | G12A C46G A70G | 0.703
108 | U28C C29U A57G A65G | ≤ 0.5
109 | C49A A57C A69U | 0.528
110 | C22U C30G G50C A70G | ≤ 0.5
111 | A20U G56C A65C | ≤ 0.5
112 | A14G C29U A42C C66G | ≤ 0.5
113 | A15G C24G C29U C34G U35C C46G A65U | ≤ 0.5
114 | C11G C27U A40G U47A G52C | ≤ 0.5
115 | G39A G52C | 0.612
116 | G6A G9A A57C A65C A70C | ≤ 0.5
117 | A36U G50C A69C | ≤ 0.5
118 | C4G U59G | 0.653
119 | A14G C29G C33U U47C U59C | ≤ 0.5
120 | G10C G58A C66G | ≤ 0.5

Row | Variant | yeast fitness
121 | A20U U54G A65U G67A | ≤ 0.5
122 | C4A C30U A70U | ≤ 0.5
123 | U2C C11G U26C A36U C55G A57C A65C | ≤ 0.5
124 | G6C C24G C29G G39C C55A | ≤ 0.5
125 | C5U A20C A21U U53C U64A | ≤ 0.5
126 | C11G C29G G38A G44A C46U C62G | ≤ 0.5
127 | C5A U8G C27U A45G U53C | ≤ 0.5
128 | G23A C29U C60U | ≤ 0.5
129 | C4A C27A C55U | ≤ 0.5
130 | C11G C33U A36G C55G | ≤ 0.5
131 | G6A U53C A57C A65U | ≤ 0.5
132 | C4A G58A | 0.878
133 | G9A C11A C30G C46U G67A | ≤ 0.5
134 | G9A C11G C33U A69U | ≤ 0.5
135 | G9C G18C C33A C34G A45G | ≤ 0.5
136 | U8A A40G C55G | ≤ 0.5
137 | C11U A14G G51C A69U | ≤ 0.5
138 | C11G A21G G38C G41C C60G | ≤ 0.5
139 | C5G A21C G41C | ≤ 0.5
140 | C11U C24U C30G A40G G41C C61U | ≤ 0.5
141 | C4A A14C U26C A36G | ≤ 0.5
142 | C22A C61G A65U | ≤ 0.5
143 | C4G G23A C34G G67A | ≤ 0.5
144 | A21U U35C G51C | ≤ 0.5

Row | Variant | yeast fitness
145 | C4G G9A A14G G25C | ≤ 0.5
146 | A20U G38C A65G | ≤ 0.5
147 | C4U U7A A36U C60G | ≤ 0.5
148 | C27A A45U G67C | ≤ 0.5
149 | A14G A40C C60G C66G A69U | ≤ 0.5
150 | A14U G17C A36C | ≤ 0.5
151 | A20C C27A G52C U54C | ≤ 0.5
152 | U13G C27A U28A C33U A69C | ≤ 0.5
153 | U19G A40G G51C G68U | ≤ 0.5
154 | C4U G10A C11G A20G C27G C29U A65U | ≤ 0.5
155 | G9A U13C C29G C55A | ≤ 0.5
156 | G10A A15C C24U A36C A43U G67C | ≤ 0.5
157 | C22A C30A A65C | ≤ 0.5
158 | C4G A15C U26G G41C C55U C60G | ≤ 0.5
159 | C4A U26A C34G G38A | ≤ 0.5
160 | U13G C27A U28A C33U A43G U59C | ≤ 0.5
161 | G6A A57U | 0.629
162 | G9C U28A A40C U47C G52A | ≤ 0.5
163 | U8A G58A | 0.771
164 | C11G C29G U32G G38A U53C | ≤ 0.5
165 | C22U A42U | 0.749
166 | C5U C31U G39A G67C | ≤ 0.5
167 | U16A G56C A57U C60U | ≤ 0.5
